Laboratory results: PubChem BioAssay AID1259308 (NCATS, 2017)
The deposit covers about 59,000 reagents; shown is a part drawn at random. Over the whole deposit, about 1,510 (2.6%) got an active call. 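Calls use total luciferase alone and ignore viability, so some active siRNAs may act by altering cell number.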 Further read-outs or replicates are left out here. Reagent sequences are not shown.

Screen: 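Genes whose loss raises luciferase production in HEK293 cells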 (primary screen)
Cells: human HEK293 embryonic kidney cells stably expressing firefly luciferase (HEK-CMV-Luc2-Hygro)
Reagent: single siRNA against human genes, 0.8 pmol siRNA per well
Time to read-out: 72 h
Measurement: 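Luciferase light (ONE-Glo) measured on one replicate plate set and viability (CellTiter-Glo) on the other, scaled to a negative control siRNA, with robust z-scores and luciferase per cell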
Reading the numbers: total luciferase, z-score and total luciferase, % of control: higher = more reporter protein produced
Call rule: 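Active when the median/MAD z-score for overall luciferase is greater than 3; a gene was taken forward for validation with new siRNAs if at least two of its three siRNAs passed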
Calls: active = raised luciferase; inactive = no rise

gene knocked down | PubChem SID | total luciferase, z-score | total luciferase, % of control | activity call
AFF3 | SID160776477 | 0.0739 | 83.4 | inactive
AFF3 | SID160776478 | -0.198 | 77.9 | inactive
AFF3 | SID160776479 | -1.17 | 58.5 | inactive
ACRBP | SID160752348 | 1.12 | 104 | inactive
ACRBP | SID160752349 | 3.01 | 142 | active
ACRBP | SID160752350 | -0.596 | 70 | inactive
BCLAF3 | SID160762466 | 1.83 | 118 | inactive
BCLAF3 | SID160762468 | 0.208 | 86 | inactive
BCLAF3 | SID160762469 | -0.713 | 67.7 | inactive
BRMS1 | SID160732838 | -0.093 | 80 | inactive
BRMS1 | SID160737133 | 0.46 | 91 | inactive
BRMS1 | SID160737134 | -1.13 | 59.4 | inactive
CLDN7 | SID160730617 | 0.257 | 87 | inactive
CLDN7 | SID160747488 | 0.882 | 99.4 | inactive
CLDN7 | SID160747497 | 0.297 | 87.8 | inactive
NKX2-2 | SID160778087 | -0.994 | 62.1 | inactive
NKX2-2 | SID160778088 | 0.0163 | 82.2 | inactive
NKX2-2 | SID160778089 | 1.91 | 120 | inactive
TSPAN12 | SID160736551 | -1.67 | 48.6 | inactive
TSPAN12 | SID160736552 | 0.176 | 85.4 | inactive
TSPAN12 | SID160736553 | -0.18 | 78.3 | inactive
PRMT5 | SID160728374 | -0.324 | 75.4 | inactive
PRMT5 | SID160728375 | 1.25 | 107 | inactive
PRMT5 | SID160728376 | 0.789 | 97.6 | inactive
CPNE1 | SID160721105 | 0.237 | 86.6 | inactive
CPNE1 | SID160721106 | -0.637 | 69.2 | inactive
CPNE1 | SID160732111 | 1.5 | 112 | inactive
FSCB | SID160751686 | 2.52 | 132 | inactive
FSCB | SID160751687 | -0.218 | 77.6 | inactive
FSCB | SID160751688 | -0.429 | 73.4 | inactive

Sorted by “total luciferase, z-score” (lowest first): 7 of the entries above.
gene knocked down | PubChem SID | total luciferase, z-score | total luciferase, % of control | activity call
AFF3 | SID160776479 | -1.17 | 58.5 | inactive
ACRBP | SID160752350 | -0.596 | 70 | inactive
AFF3 | SID160776478 | -0.198 | 77.9 | inactive
BCLAF3 | SID160762468 | 0.208 | 86 | inactive
ACRBP | SID160752348 | 1.12 | 104 | inactive
BCLAF3 | SID160762466 | 1.83 | 118 | inactive
ACRBP | SID160752349 | 3.01 | 142 | active

Further results follow:
gene knocked down | PubChem SID | total luciferase, z-score | total luciferase, % of control | activity call
KISS1 | SID160723895 | -1.35 | 55.1 | inactive
KISS1 | SID160723896 | 0.0849 | 83.6 | inactive
KISS1 | SID160723897 | -2.39 | 34.4 | inactive
TLE1 | SID160718103 | 0.381 | 89.5 | inactive
TLE1 | SID160718104 | 0.207 | 86 | inactive
TLE1 | SID160718105 | -0.52 | 71.5 | inactive
SBK2 | SID160725963 | 2.61 | 134 | inactive
SBK2 | SID160725964 | 0.611 | 94 | inactive
SBK2 | SID160725965 | -0.732 | 67.3 | inactive
RNF166 | SID160755304 | -1.44 | 53.2 | inactive
RNF166 | SID160755305 | 0.378 | 89.4 | inactive
RNF166 | SID160755306 | -0.44 | 73.1 | inactive
PAIP1 | SID160728835 | 1.18 | 105 | inactive
PAIP1 | SID160728836 | -0.327 | 75.4 | inactive
PAIP1 | SID160730458 | 0.205 | 86 | inactive
OR10J3 | SID160768097 | 0.887 | 99.5 | inactive
OR10J3 | SID160768098 | -0.971 | 62.6 | inactive
OR10J3 | SID160768099 | -2.26 | 36.9 | inactive
YPEL4 | SID160761298 | -1.6 | 50.1 | inactive
YPEL4 | SID160761299 | -0.171 | 78.5 | inactive
YPEL4 | SID160761300 | 1.53 | 112 | inactive
UBP1 | SID160718560 | 1.48 | 111 | inactive
UBP1 | SID160718561 | 1.39 | 110 | inactive
UBP1 | SID160718562 | 1.1 | 104 | inactive
RLBP1 | SID160715917 | 0.897 | 99.7 | inactive
RLBP1 | SID160715918 | 0.719 | 96.2 | inactive
RLBP1 | SID160715919 | -1.01 | 61.7 | inactive
